# Data taken from PubChem BioAssay AID1508600 (Functional Genomics Laboratory (NCATS/FGL), 2020).
# Out of some 53,000 sequences screened, about 3,700 (7%) were called active.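 How the source made its calls: active means gene knockdowns whose robust z-score for IL-1 alpha signal is at least 2 or at most -2, so actives lie on both sides; inactive means the rest.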 The list shows a part of the results.
# Test: Components of the Cytosolic LPS Sensing Pathway: Gene Identification via Genome-wide siRNA Screen;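 further: robust z of the log signal after scaling to non-targeting control siRNA wells of the plate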
# Conditions: RAW264.7 macrophages, IL-1a HTRF, actives lie on both sides, screened at 100 nM (by protocol), cells primed 5 h with Pam3CSK4 first
# Summary of the method: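 IL-1a HTRF of supernatants after 24 hour LipidA transfection of Pam3CSK4-primed (5 hours) RAW264.7 cells, 48h post-siRNA transfection (100 nM). Scores: percent of plate negative-control median, then log-based robust z-score.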
row,Sequence,z-score
1,GGACCAGCUAAAUAUUAGUTT against Rgs2,inactive: -0.315
2,GGCAGUGGAGUUAACAACATT against Dsg1b,inactive: -0.12
3,GGUCAUCACGAUUGUUUUGTT against Cyp1a1,inactive: -0.16
4,GGAUCAUCUCAAGUCUUACTT against F7,inactive: 0.124
5,GGAAGAACUUCAGGAAAAUTT against Clec12a,inactive: -1.16
6,GUGGACUCCAAGCUACAAATT against Olfr1047,inactive: -0.968
7,GGUUGUAAACCACGUGGACTT against Adam8,inactive: 1.66
8,CGGAGCUCAAACAUCUGAUTT against Slirp,inactive: -1.61
9,GGUGUGCCUUUUCAAGAAATT against Hebp2,inactive: -1.38
10,GCUAGUCACCAUUCUGAUUTT against Olfr141,inactive: 0.105
11,GGCCAAGAAAAUCCUGUGGTT against Mfsd5,active: -2.71
12,GCUUCGAGAGUCAACUAUGTT against Mecom,inactive: 0.232
13,GGAGAAGUCUGGCAUCAUATT against Mapkapk5,inactive: 1.33
14,GGCUGAACCUCAAGGUCAUTT against Chst1,inactive: 0.409
15,GAACUUUGCCAUUGAUUUGTT against Ndufs6,inactive: 1.63
16,ACUUCACGAUGGAAAAAUUTT against Gm9732,inactive: -1.63
17,GGCUUACUUGAAGCAUUUATT against Plcb4,active: 2.13
18,GGGCUUUCCUCAAGGUAGUTT against Olfr62,inactive: -1.39
19,GCCUGAUGUUGUUUCCAAATT against Lias,active: 2.67
20,CCCAUGAUCUGGAAGAGACTT against Il1a,active: -2.08
21,GGUUCAAGGAUGAAUUAGATT against Trappc6b,active: -2.03
22,GGCACUGUGUCAAGGUAAGTT against Ccdc142,inactive: -1.6
23,GGCUGAGGUGGUUACAUUATT against Coa7,inactive: 0.74

row,Sequence,z-score
1,AAAGUUCGCCGUCUCUGGGTT against Olfr426,inactive: 0.448
2,GGGAUCAGAAAAGUUAACATT against Acaca,inactive: 0.785
3,GGGACAGUGGACCAUUAUGTT against Rnf8,active: -2.41
4,GGUCUACAUGUUCAAGUGUTT against Laptm5,inactive: 1.62
5,GGAGCUACCUCUGGAUACATT against Tmem269,inactive: 1.28
6,GGCUGAGAUCAAGAGGAUCTT against Ap2a1,inactive: 1.58
7,CCAGUGGAUGAGGUCAUUGTT against Rnf208,inactive: -0.992
8,GGACAUUUUUGACAUCAUATT against Tubg1,inactive: 0.0604
9,GGAGAAGGCAACUUCUGUUTT against Zfp641,inactive: 0.19
10,CGAUCACCAUGAUGAAUUCTT against Bex3,inactive: -0.128
11,GGUUGAAUUGGAGAAGAUUTT against Pcnt,inactive: -1.76
12,CCGUCAGAAUCAAGCUUUUTT against Primpol,inactive: 0.729
13,GCCAUCGCUAACUUACGGATT against Gdpd5,inactive: -1.81
14,CGAGAGAGUGUUACCAUCGTT against Prkd3,inactive: -0.858
15,GCUCAUCUCCUUGAAUUCATT against Agbl5,inactive: 0.31
16,GGGCCCAGAUUUCAAUGGGTT against Car14,inactive: 0.379
17,GGCUUUCCUUCGGAAGAAUTT against Abca14,inactive: -1.15
18,GGUAGGUCGUCGAGAAUACTT against Prss44,inactive: 0.17
19,GGACGACAAGGACUUCACGTT against Kcna1,inactive: -1.57
20,CCACCCUGCCUAGAAACUUTT against Pgap6,inactive: -0.32
21,CGGAAAGCAUUAAAGCUAUTT against Bbs7,inactive: -0.0491
22,GGUAAACUGCUCAAGAUGUTT against Ceacam12,inactive: 0.832
23,GGAGCUGUUUUUCCACUCCTT against Phlda2,inactive: -0.337

# Nothing new here: an excerpt of the list.
row,Sequence,z-score
15,GCUCAUCUCCUUGAAUUCATT against Agbl5,inactive: 0.31
16,GGGCCCAGAUUUCAAUGGGTT against Car14,inactive: 0.379
17,GGCUUUCCUUCGGAAGAAUTT against Abca14,inactive: -1.15
18,GGUAGGUCGUCGAGAAUACTT against Prss44,inactive: 0.17
19,GGACGACAAGGACUUCACGTT against Kcna1,inactive: -1.57

# Later entries:

row,Sequence,z-score
1,GUCAGAAAGAGAAGCUCGATT against Rps28,inactive: -0.457
2,CCACCAAAGGAGAAAGAGATT against Tcea3,inactive: -0.46
3,CCAAUUACGGACUGUGUGUTT against Wfdc2,inactive: -0.335
4,GGUCUUUGACAGAAUAAAATT against Yipf1,inactive: 1.94
5,GCCAUAAUGCUAUUGUUCATT against Cacna1b,inactive: 1.79
6,GCAGAUGUCAUGGUAACUCTT against Kmt5b,inactive: -0.459
7,GCUCCUACAAAACAUCCGATT against A130079P16Rik,active: -2.12
8,CCCAAUCCUCCCAUGUUUCTT against Usp22,inactive: -0.619
9,GGAGCUAUGUUCAGUUCUUTT against Qsox1,inactive: 0.438
10,GCGACAAAUGUAGCCCUUGTT against Mrpl36,inactive: -0.0686
11,GCCUAAGAAAUUAGUGAAUTT against Rflna,inactive: 0.204
12,CCAUUGUUCCAUUCUAAGUTT against Sema7a,inactive: 0.857
13,CCCGGAAACAACACAUUGCTT against Tyrobp,active: 2.88
14,CCUAUAUUUUCAAAGAUGGTT against Gstm1,inactive: -0.126
15,GACUGGAUUUUAGUUCAUUTT against A130014H13Rik,inactive: 0.738
16,CCAGGGUGGUCUUUUGAAGTT against Eif1,inactive: -1.66
17,GCAGAAGUACGAUGGAAUCTT against Rpl11,inactive: 0.73
18,GGCUGAUUCUCAUCACAUUTT against E130309D02Rik,inactive: 0.0413
19,GGUCAAAGAUGCAUUGAAGTT against Glmn,inactive: -0.324
20,GGUUUUUCAGAAAUUAGUGTT against Olfr1163,inactive: -0.24
21,GCCAGUCUAUGCAAACCCUTT against Foxo3,inactive: -1.12
22,GCUAGUCCUCAAGCUUCUGTT against Snapc2,inactive: 0.28
